# Results reported in PubChem BioAssay AID2551 (National Center for Advancing Translational Sciences (NCATS), 2010).
# By UniProt entry, the sequences of proteins in these tests, tags left out. Where a name states a change or a piece, a line headed by the entry shows the natural chain unless it says otherwise.
# UniProt P51450: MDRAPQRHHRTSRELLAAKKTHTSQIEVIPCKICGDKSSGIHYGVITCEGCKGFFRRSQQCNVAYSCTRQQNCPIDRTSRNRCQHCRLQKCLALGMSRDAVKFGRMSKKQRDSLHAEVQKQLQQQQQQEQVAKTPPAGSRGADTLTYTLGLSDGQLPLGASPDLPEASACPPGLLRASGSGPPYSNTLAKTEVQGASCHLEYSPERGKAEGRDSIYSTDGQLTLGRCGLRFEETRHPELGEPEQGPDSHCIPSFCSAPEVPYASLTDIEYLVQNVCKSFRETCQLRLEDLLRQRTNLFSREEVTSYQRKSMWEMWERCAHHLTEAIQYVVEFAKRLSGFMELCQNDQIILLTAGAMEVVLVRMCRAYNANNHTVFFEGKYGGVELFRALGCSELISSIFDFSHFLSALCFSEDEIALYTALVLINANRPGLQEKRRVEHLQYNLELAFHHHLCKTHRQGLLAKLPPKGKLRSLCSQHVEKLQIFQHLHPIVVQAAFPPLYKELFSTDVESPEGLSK
# Hit rate of the full screen: of about 310,000 compounds, about 17,000 (5.5%) were called active. Inconclusive results, whose numbers are uncertain, are shown with a selection of clear calls. Calls follow the shape of the dose curve; as a rule, active = well fitted inhibition curve with a large enough effect; inconclusive = small, poorly fitted or top-dose-only effect, or effect the other way; inactive = no such curve, though single readings can be large or run the other way. Potencies beside an inconclusive call are fits to weak or partial responses and may not hold up.
# Biological target: Nuclear receptor ROR-gamma (Mus musculus) (UniProt P51450)
# Experiment: qHTS for inhibitors of ROR gamma transcriptional activity; also: nearly all actives have a fitted effect of over 60% in size
# Details: Drosophila S2 Gal4-RORgamma UAS-luciferase reporter, 20 h; activity change, negative = inhibition: at 53.6 µM (top of the series)
# Outline: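 Luciferase reporter read in Schneider cells carrying Gal4-RORγ (mouse) and UAS-Photinus luciferase; cells given compound 1 h before 700 uM copper sulfate induction, then incubated 20 h at ambient temperature.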
# % is scaled to controls: 0 for no effect and ±100 for the full control effect; potency is read from the fitted curve at half-maximal effect.
Compound,Potency,"activity change, negative = inhibition"
CC(C)C(=O)N1CCN(c2ccc(NC(=O)c3cccs3)cc2Cl)CC1,"inconclusive: 12.6 µM [activator, partial curve]",–
CC1(C)CC(=O)c2sc(NC(=O)CN3CCOCC3)nc2C1,inactive,–
Cc1cc(=O)n2c(sc3ccccc32)c1C#N,inactive,–
O=C(Nc1nnc(S(=O)(=O)Cc2ccc(F)cc2)s1)c1ccccc1F,"inconclusive: 12.6 µM [activator, partial curve]",–
COc1ccccc1C(=O)NC(=S)Nc1ccccc1N1CCCCC1,active: 3.98 µM,–
COc1cccc(/C=C2\SC(=S)N(CCCC(=O)NC3=NCCS3)C2=O)c1,active: 0.562 µM,–
CCCc1cc(=O)oc2cc(OCC(=O)NCCc3c[nH]c4ccc(OC)cc34)ccc12,"inconclusive: 31.6 µM [activator, single point]",–
O=c1c(Cl)c(N2CCN(c3ccc(F)cc3)CC2)cnn1-c1nc2ccccc2s1,"inconclusive: 1.26 µM [activator, partial curve]",–
Oc1c(Br)cc(Br)c2cccnc12,active: 0.282 µM,–
O=C(CN1CCN(S(=O)(=O)c2ccccc2)CC1)Nc1ccccc1C(=O)c1ccccc1,"inconclusive: 10 µM [activator, partial curve]",–
COC(=O)COc1ccc(S(=O)(=O)NCCC2=CCCCC2)cc1C,"inconclusive: 35.5 µM [inhibitor, single point]",–
CCN(c1ccc(NC(=O)c2ccc(Cl)nc2)cc1)C(C)C,"inconclusive: 17.8 µM [activator, single point]",–
Cc1cc(C)n(-c2ccc(C(=O)Nc3cc(S(=O)(=O)N(C)C)ccc3Cl)cc2)n1,inactive,–
Cc1ccc(C(=O)Nc2cccnc2Oc2ccc(Cl)cc2)cc1,"inconclusive: 1.78 µM [activator, partial curve]",–
CC1CCCC2(C1)NC(=S)c1c(sc3c1CCCC3)N2 (configuration not stated),active: 31.6 µM,–
CCc1ccc2oc(-c3ccc(N)cc3)nc2c1,"inconclusive: 12.6 µM [inhibitor, single point]",–
CCOC(=O)CNC(=O)CSc1ncccc1-c1nc2ccccc2[nH]1,inactive,–
COc1cc2[nH]c(=S)nc(NCc3cccc(Cl)c3)c2cc1OC,active: 3.16 µM,–
COc1cc(NC(=O)CN2C(=O)NC(C)(c3ccc4ccccc4c3)C2=O)c(C)cc1[N+](=O)[O-] (configuration not stated),"inconclusive: 11.2 µM [activator, partial curve]",–
Cc1c(C)c2c(OCC(=O)NCc3ccccn3)cc3c(c2oc1=O)CCC(C)(C)O3,inactive,–
CCOc1cccc(/C=N/NC(=S)NCCN2CCOCC2)c1O,active: 1.41 µM,–
O=C(CSc1nc2ccccc2n1CCc1ccccc1)c1ccc(O)c(O)c1,active: 7.94 µM,–
NC(=O)c1ccccc1N/C=C/C(=O)c1cccs1,"inconclusive: 5.62 µM [inhibitor, single point]",–
O=C(NC(=S)Nc1ccc(S(=O)(=O)Nc2nccs2)cc1)c1ccc(F)c(F)c1,–,inactive: 19.2% [at 10 µM]
CCC(=O)Nc1ccc(C(=O)CSc2nnc(-c3ccccc3F)n2CCc2ccccc2)cc1,"inconclusive: 35.5 µM [inhibitor, single point]",–
Cc1ccc(C)c(N2CCN(C(=O)CC3Sc4ccccc4NC3=O)CC2)c1 (configuration not stated),"inconclusive: 15.8 µM [activator, single point]",–

Compound,Potency,"activity change, negative = inhibition"
CCN(CC)C(=O)c1cc2sc3ccccc3c2s1,inactive,–
COc1ccc(-c2ccc(C#N)c(SCC(=O)NCCc3ccccc3)n2)cc1OC,"inconclusive: 2 µM [activator, full curve]",–
CS(=O)(=O)Nc1cccc(-c2nc(Nc3ccc(F)cc3)c3ccccc3n2)c1,inactive,–
COC(=O)c1ccc(C)c(NS(=O)(=O)c2ccc3c(c2)OCCO3)c1,"inconclusive: 3.98 µM [activator, full curve]",–
CN(C)c1cccc(C(=O)Nc2nc3ccccc3[nH]2)c1,active: 5.01 µM,–
CN(Cc1ccccc1)C(=O)COc1cc(=O)n(C)c2ccccc12,inactive,–
CCn1c(CNC(=O)c2ccc(F)cc2)cc2ccccc21,inactive,–
Cc1ccc(-n2c(SCC(=O)NNC(=S)Nc3ccccc3)nc3ccccc3c2=O)cc1,"inconclusive: 5.62 µM [activator, single point]",–
CC(=O)Nc1ccc(S(=O)(=O)Nc2cccc(-c3csc(C)n3)c2)cc1,"inconclusive: 11.2 µM [activator, partial curve]",–
CCCCN(C)CC(O)Cn1cc(/C=C/C(=O)c2ccc(C)cc2)c2ccccc21 (configuration not stated),"inconclusive: 35.5 µM [inhibitor, single point]",–
COc1cc(OC)cc(C(=O)NCC(=O)OCc2cc(=O)oc3cc(OC)ccc23)c1,inactive,–
Cc1c(Cl)c([N+](=O)[O-])nn1CC(=O)NCCCN1CCOCC1,inactive,–
CCCCCC(=O)O/N=C(\C)c1ccn(S(=O)(=O)c2ccccc2)c1,"inconclusive: 35.5 µM [activator, single point]",–
COc1ccc(CNc2cc(-c3cccnc3)ncn2)c(OC)c1,inactive,–
CCCC(=O)N(Cc1cc(=O)[nH]c2ccccc12)c1ccc(OC)cc1,inactive,–
O=[N+]([O-])c1cccc(-c2ccc(/C=N/NC(=S)NCc3ccco3)o2)c1,active: 0.447 µM,–
Cc1ccc(C)c2[nH]c(=O)c(CN(Cc3ccc4c(c3)OCO4)Cc3nnnn3Cc3ccco3)cc12,"inconclusive: 22.4 µM [activator, single point]",–
COc1ccc(OC)c(S(=O)(=O)N2CCC(C(=O)NC(C)c3ccccc3)CC2)c1 (configuration not stated),"inconclusive: 11.2 µM [activator, partial curve]",–
O=C(/C=C/c1cccc([N+](=O)[O-])c1)N1CCN(Cc2ccccc2)CC1,"inconclusive: 35.5 µM [activator, single point]",–
O=C(NC1CCCCC1)NC1CCN(S(=O)(=O)Cc2ccccc2)CC1,"inconclusive: 22.4 µM [activator, single point]",–
O=C(N/N=C/c1cc(Br)c(O)c(Br)c1O)c1cccnc1,"inconclusive: 25.1 µM [inhibitor, single point]",–
COc1cccc(N/C=C/C(=O)c2ccc(C)cc2)c1,"inconclusive: 20 µM [inhibitor, partial curve, poor fit]",–
CC(C)(C)CC(C)(C)NC(=S)Nc1ccc(S(=O)(=O)N2CCOCC2)cc1,"inconclusive: 22.4 µM [inhibitor, single point]",–
CC1=CCC(COC(=O)Nc2ccccc2)CC1 (configuration not stated),inactive,–
CCc1nnc(NC(=O)CN2CCCC(C)C2)s1 (configuration not stated),inactive,–
CCOc1cc(/C=N/N=C(N)N)ccc1OCc1ccc(Cl)cc1,"inconclusive: 31.6 µM [inhibitor, single point]",–

# Record cards, as listed above. Order of values: Potency	activity change, negative = inhibition
# `CN(Cc1ccccc1)C(=O)COc1cc(=O)n(C)c2ccccc12` is listed as inactive	–
# `CCN(c1ccc(NC(=O)c2ccc(Cl)nc2)cc1)C(C)C` is listed as inconclusive: 17.8 µM [activator, single point]	–
# `Cc1ccc(C)c(N2CCN(C(=O)CC3Sc4ccccc4NC3=O)CC2)c1` (configuration not stated) is listed as inconclusive: 15.8 µM [activator, single point]	–
# `CC(=O)Nc1ccc(S(=O)(=O)Nc2cccc(-c3csc(C)n3)c2)cc1` is listed as inconclusive: 11.2 µM [activator, partial curve]	–

# Further results follow.

Compound,Potency,"activity change, negative = inhibition"
CCSc1nc2ccccc2n1CCC(=O)O,inactive,–
Cc1ccc2c(c1)c1ncnc(N3CCOCC3)c1n2C,inactive,–
C/C(=N\Nc1ccc2nncn2n1)c1ccc(Cl)s1,inactive,–
O=C(NC(=S)Nc1sc2c(c1C(=O)O)CCCC2)c1ccccc1,inactive,–
C=CCn1c(O)c(N=NC(=S)Nc2ccccc2F)c2cc(S(=O)(=O)N3CCOCC3)ccc21,active: 0.447 µM,–
CN(C)Cc1c(O)ccc2occ(C(=O)c3ccc(F)cc3)c12,"inconclusive: 35.5 µM [inhibitor, single point]",–
CCCCNC(=O)CC1N=C2c3ccccc3N=C(SCC(=O)Nc3ccc(OC)cc3)N2C1=O (configuration not stated),"inconclusive: 10 µM [activator, partial curve]",–
CC(C(=O)Nc1ccc(C#N)cc1)N(C)CC(=O)Nc1cccc(F)c1 (configuration not stated),inactive,–
CC(C)(C)C1CCc2onc(C(=O)N3CCOCC3)c2C1 (configuration not stated),inactive,–
Cc1cc(/C=C(\C#N)C(=O)OCC#N)c(C)n1CC(C)C,inactive,–
O=C(Cc1ccc(F)cc1)OCn1nnc2ccccc2c1=O,inactive,–
CCC(=O)Nc1ccc(Oc2ccc3c(c2)C(=O)N(c2ccc(O)cc2)C3=O)cc1,inactive,–
CCn1c(O)c(N=Nc2ccc3ccccc3n2)c2ccccc21,"inconclusive: 5.62 µM [inhibitor, full curve, poor fit]",–
Cc1nn(-c2ccccc2)c2nc(N)c(C#N)c(-c3ccc(F)cc3)c12,inactive,–
C=CC[n+]1c(C)csc1Nc1ccc(C)cc1,"inconclusive: 35.5 µM [activator, single point]",–
CC(C)(C)OC(=O)[C@H](Cc1ccccc1)NC(=O)c1nc[nH]c1C(=O)NCc1ccccc1,active: 11.2 µM,–
O=[N+]([O-])c1ccc(S(=O)(=O)NCCN2CCOCC2)cc1,inactive,–
O=C(Nc1cccc(-c2cn3c(n2)SCC3)c1)c1ccc(Br)o1,"inconclusive: 0.708 µM [activator, full curve, poor fit]",–
Cc1cccc(OCC(O)CN2CCc3ccccc3C2)c1 (configuration not stated),inactive,–
O=C(Nc1cccc([N+](=O)[O-])c1)Nc1cnccn1,"inconclusive: 1.12 µM [activator, partial curve, poor fit]",–
CCCCCCCNC(=O)C1CC(=O)N(C)C(=Nc2ccc(OC)cc2)S1 (configuration not stated),"inconclusive: 3.55 µM [activator, single point]",–
CCCn1c(/N=C/c2cc(OC)ccc2O)nc2ccccc21,"inconclusive: 14.1 µM [inhibitor, single point]",–
CCNC(=S)NNC(=O)c1ccoc1C,inactive,–
O=C(CSc1ncnc2sc(-c3ccccc3)cc12)NC1CCS(=O)(=O)C1 (configuration not stated),"inconclusive: 12.6 µM [activator, partial curve, poor fit]",–
Nc1nc(CSc2ccc(Cl)cc2)nc(N2CCCCC2)n1,"inconclusive: 0.199 µM [inhibitor, full curve, poor fit]",–
